Experimental data taken from paper PMC9249852.
For at least one entry, the source does not settle the construct or the ends of the probe. Weaker means in comparison with the reference protein, sequence or condition of that experiment. At least one verdict rests on a figure or table, not on a statement of the authors.

By UniProt entry, the sequences of proteins in these tests, tags left out. Where a name states a change or a piece, a line headed by the entry shows the natural chain unless it says otherwise.
UniProt P09077: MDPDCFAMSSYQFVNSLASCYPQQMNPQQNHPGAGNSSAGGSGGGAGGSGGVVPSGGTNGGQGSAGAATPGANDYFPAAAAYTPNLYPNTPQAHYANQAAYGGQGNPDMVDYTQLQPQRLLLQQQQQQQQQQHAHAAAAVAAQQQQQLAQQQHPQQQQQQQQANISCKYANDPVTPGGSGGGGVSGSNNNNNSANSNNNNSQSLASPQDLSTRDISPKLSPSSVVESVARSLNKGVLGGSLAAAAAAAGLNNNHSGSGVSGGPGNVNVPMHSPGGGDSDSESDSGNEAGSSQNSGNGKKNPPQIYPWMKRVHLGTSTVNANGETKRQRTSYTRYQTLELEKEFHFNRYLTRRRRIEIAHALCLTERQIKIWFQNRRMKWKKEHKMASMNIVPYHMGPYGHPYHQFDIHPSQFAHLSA

Biological target: EGFP-Scr-FLAG (UniProt P09077)
Test: biotin-DNA pull-down, anti-FLAG western
Settings: without Dll, Pull-down in 1 ml: 500 ul protein in dialysis buffer (20 mM HEPES pH 8.0, 200 mM NaCl, 10% glycerol, 2 mM MgCl2), recombinant protein, residues 1-417, label: 5' biotin on strand 2 (SR1 primer)

Row | Sequence | binding result | binding result (mCherry control has no effect)
1 | AATATTTTATAAATTTAATAAATTGAGTCGTATGCCGTCTTCTGCTTG (double strand) [probe-dsx (dsx-1)] | binds more weakly | 
2 | ATCGTTAAATTACCGCAATTTGCATGTTCGTATGCCGTCTTCTGCTTG (double strand) [probe-dpy (dpy-1)] | binds more weakly | 
3 | TGGGCCTGGTAATTAATTTAATTATCCAGGTCGTATGCCGTCTTCTGCTTG (double strand) [probe-Scr-Dll consensus] |  | binds more weakly
